# Measurements reported in PubChem BioAssay AID1224830 (NIAID, 2016).
# Aim: 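Regulators of TLR4 signalling towards TNF-alpha in macrophage-like cells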 (primary screen)
# Cells: human THP-1 monocytic leukaemia cells, TNF dual-luciferase reporter clone, PMA-differentiated to macrophage-like cells
# Reagents: siRNA pool against human genes, 50 nM
# Duration: LPS for 4 h, given about 3 days after siRNA transfection
# Challenge: bacterial LPS (TLR4 ligand), 10 ng/ml
# Detection: 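Ratio of firefly to renilla light, scaled to the plate median and expressed as a robust z-score per replicate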
# Direction: TNF reporter robust z-score: higher = stronger TNF reporter response to LPS
# Hit rule: 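Each well counts as active if its z-score is over 2.8 or under -1.5; controls are left without a call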
# The whole screen tested about 18,000 reagents; below is a part drawn at random. Of all reagents, about 2,900 (16%) got an active call. 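Calls are made per well; low scores hint the gene aids the LPS response, high scores that it dampens it.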 Entries without a mark were called inactive. Repeated entries: four replicate wells of each siRNA pool.
target gene,TNF reporter robust z-score
CD48 (GeneID 962),1.55
CD48 (GeneID 962),0.53
CD48 (GeneID 962),1.35
CD48 (GeneID 962),2.03
SLC6A6 (GeneID 6533),0.3
SLC6A6 (GeneID 6533),-0.23
SLC6A6 (GeneID 6533),-0.29
SLC6A6 (GeneID 6533),0.13
CDC42BPA (GeneID 8476),0.17
CDC42BPA (GeneID 8476),1.11
CDC42BPA (GeneID 8476),2.36
CDC42BPA (GeneID 8476),0.34
SIRPB1 (GeneID 10326),-0.5
SIRPB1 (GeneID 10326),-1.19
SIRPB1 (GeneID 10326),-1.21
SIRPB1 (GeneID 10326),-0.87
RIPK4 (GeneID 54101),0.16
RIPK4 (GeneID 54101),0.04
RIPK4 (GeneID 54101),-0.46
RIPK4 (GeneID 54101),-0.01
ALS2CL (GeneID 259173),-0.34
ALS2CL (GeneID 259173),-0.19
ALS2CL (GeneID 259173),0.79
ALS2CL (GeneID 259173),0.1
OR8K3 (GeneID 219473),0.68
OR8K3 (GeneID 219473),-0.06
OR8K3 (GeneID 219473),1.57
LDB1 (GeneID 8861),-0.6
LDB1 (GeneID 8861),0.36
LDB1 (GeneID 8861),-0.33
LDB1 (GeneID 8861),0.61
CFAP157 (GeneID 286207),-0.08
CFAP157 (GeneID 286207),-0.63
CFAP157 (GeneID 286207),-0.66
CFAP157 (GeneID 286207),-0.32
IL15RA (GeneID 3601),-0.81
IL15RA (GeneID 3601),-0.22
IL15RA (GeneID 3601),-0.73
IL15RA (GeneID 3601),0.01
LAT2 (GeneID 7462),-0.99
LAT2 (GeneID 7462),-1.03
LAT2 (GeneID 7462),-1.33
LAT2 (GeneID 7462),-0.3
KCNJ5-AS1 (GeneID 219833),-0.04
KCNJ5-AS1 (GeneID 219833),-0.87
KCNJ5-AS1 (GeneID 219833),-0.16
KCNJ5-AS1 (GeneID 219833),-0.69

2 entries from above in another layout:
target gene	TNF reporter robust z-score
CDC42BPA (GeneID 8476)	0.17
CDC42BPA (GeneID 8476)	1.11
